Experimental data from article PMC12339706.
No constants are given. Whether binding was seen depends on the method and setting. Binding seen in cells or lysates may run through a third protein. These calls come from enrichment with a bait or labelling near it, and not all partners need be listed. Sequences can lack the tags named with a protein.

Amino acid sequences for entries named in this document (tags omitted).
UniProt Q16643: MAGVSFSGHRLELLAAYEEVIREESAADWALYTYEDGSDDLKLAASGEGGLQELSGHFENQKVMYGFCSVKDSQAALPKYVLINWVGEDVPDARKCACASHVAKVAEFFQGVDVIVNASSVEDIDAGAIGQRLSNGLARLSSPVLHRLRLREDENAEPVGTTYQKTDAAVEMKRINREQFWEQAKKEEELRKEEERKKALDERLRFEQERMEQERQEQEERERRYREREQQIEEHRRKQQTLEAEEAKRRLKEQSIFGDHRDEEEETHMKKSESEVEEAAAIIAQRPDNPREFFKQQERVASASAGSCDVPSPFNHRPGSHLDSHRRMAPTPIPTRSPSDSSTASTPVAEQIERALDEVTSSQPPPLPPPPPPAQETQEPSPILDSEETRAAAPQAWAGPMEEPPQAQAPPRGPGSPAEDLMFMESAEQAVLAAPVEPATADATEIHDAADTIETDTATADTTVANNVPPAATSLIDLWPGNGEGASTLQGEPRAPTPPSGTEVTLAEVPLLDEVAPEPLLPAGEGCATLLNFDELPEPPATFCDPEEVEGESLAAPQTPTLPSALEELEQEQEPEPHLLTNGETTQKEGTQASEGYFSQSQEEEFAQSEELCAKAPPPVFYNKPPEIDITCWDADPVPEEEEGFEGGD

T1: Flag-TRIM59 (UniProt Q8IWR1)
T1 sequence: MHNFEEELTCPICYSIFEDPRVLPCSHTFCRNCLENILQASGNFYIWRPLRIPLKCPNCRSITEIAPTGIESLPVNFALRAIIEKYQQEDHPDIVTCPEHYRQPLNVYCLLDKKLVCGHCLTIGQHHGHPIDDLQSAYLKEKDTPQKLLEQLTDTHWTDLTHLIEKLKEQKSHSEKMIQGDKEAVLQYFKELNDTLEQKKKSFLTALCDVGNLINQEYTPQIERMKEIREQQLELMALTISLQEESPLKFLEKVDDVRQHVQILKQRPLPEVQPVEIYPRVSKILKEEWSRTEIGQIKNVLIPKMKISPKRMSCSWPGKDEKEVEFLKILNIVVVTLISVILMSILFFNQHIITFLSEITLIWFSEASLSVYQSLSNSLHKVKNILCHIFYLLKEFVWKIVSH


Biological target: T1, Flag-TRIM59
Assay: affinity purification with mass spectrometry; HEK-293T cells transfected with Flag-TRIM59 or empty vector, MG132 20 uM for 6 h; lysate in IP lysis buffer, anti-Flag antibody at 4 °C overnight, protein A/G magnetic beads, SDS-PAGE, Coomassie, LC/MS

binding	Molecule
binds	DBN1 (from UniProt Q16643 1-649)
binds	ACAT1 (endogenous, found by mass spectrometry) (enzyme, UniProt P24752 34-427) VSKPTLKEVVIVSATRTPIGSFLGSLSLLPATKLGSIAIQGAIEKAGIPKEEVKEAYMGNVLQGGEGQAPTRQAVLGAGLPISTPCTTINKVCASGMKAIMMASQSLMCGHQDVMVAGGMESMSNVPYVMNRGSTPYGGVKLEDLIVKDGLTDVYNKIHMGSCAENTAKKLNIARNEQDAYAINSYTRSKAAWEAGKFGNEVIPVTVTVKGQPDVVVKEDEEYKRVDFSKVPKLKTVFQKENGTVTAANASTLNDGAAALVLMTADAAKRLNVTPLARIVAFADAAVEPIDFPIAPVYAASMVLKDVGLKKEDIAMWEVNEAFSLVVLANIKMLEIDPQKVNINGGAVSLGHPIGMSGARIVGHLTHALKQGEYGLASICNGGGGASAMLIQKL
binds	HEL-S-87p (protein, UniProt P04075 1-364) MPYQYPALTPEQKKELSDIAHRIVAPGKGILAADESTGSIAKRLQSIGTENTEENRRFYRQLLLTADDRVNPCIGGVILFHETLYQKADDGRPFPQVIKSKGGVVGIKVDKGVVPLAGTNGETTTQGLDGLSERCAQYKKDGADFAKWRCVLKIGEHTPSALAIMENANVLARYASICQQNGIVPIVEPEILPDGDHDLKRCQYVTEKVLAAVYKALSDHHIYLEGTLLKPNMVTPGHACTQKFSHEEIAMATVTALRRTVPPAVTGITFLSGGQSEEEASINLNAINKCPLLKPWALTFSYGRALQASALKAWGGKKENLKAAQEEYVKRALANSLACQGKYTPSGQAGAAASESLFVSNHAY
